Assay results: the supplement of paper PMC9015667
Structures can show the parent of a compound that is named as a salt. This is one part of the list. Most values come without repeats; read them as rough.

Columns and labels:
Experiment in all cases: reduction in cell viability relative to untreated/vehicle; higher = more growth inhibition
Settings in all cases: 200 nM; 72 h
M229P = test system: M229P (parental melanoma line)
M229R = test system: M229R (matched melanoma line resistant to BRAF inhibitors)
M238P = test system: M238P (parental melanoma line)
M238R = test system: M238R (matched melanoma line resistant to BRAF inhibitors)
M249P = test system: M249P (parental melanoma line)
M249R = test system: M249R (matched melanoma line resistant to BRAF inhibitors)
UACC62P = test system: UACC62P (parental melanoma line)
UACC62R = test system: UACC62R (matched melanoma line resistant to BRAF inhibitors)

Measured: reduction in cell viability

Clc1ccc2ncc(-c3cccc(NC4CNC4)n3)n2c1
< 0%: all assays above

CC(=O)Oc1ccccc1C(=O)O [Aspirin]
< 0%: all assays above

NC[C@H]1O[C@H](O[C@H]2[C@H](O)[C@@H](O[C@H]3O[C@H](CO)[C@@H](O)[C@H](N)[C@H]3O)[C@H](N)C[C@@H]2N)[C@H](O)[C@@H](O)[C@@H]1O [Kanamycin]
< 0%: all assays above

COc1ccc(-c2ccc3c(N4CCOCC4)nc(N4C[C@@H](C)O[C@@H](C)C4)nc3n2)cc1CO
8.95%: M249P
3.22%: M238P
6.79%: M229P
30.8%: UACC62P
9.77%: M229R
17.3%: M238R
12.1%: M249R
14.4%: UACC62R

O=C(O)c1ccc(O)c2ncc(N3CCOCC3)cc12
< 0%: all assays above

C=C1C(=O)O[C@H]2[C@H]1CC/C(C)=C/CC[C@@]1(C)O[C@@H]21 [Parthenolide]
0.71%: M238P
8.55%: M229R
< 0%: all other assays above

CO[C@@H](C(=O)N1Cc2[nH]nc(NC(=O)c3ccc(N4CCN(C)CC4)cc3)c2C1)c1ccccc1
59.8%: UACC62R
13.6%: M238R | M249P
23.7%: M238P
15.6%: UACC62P
9.7%: M229R
15.4%: M249R
< 0%: M229P

C/C=C/C/C=C/CCC(=O)[C@H]1O[C@H]1C(N)=O [Cerulenin]
< 0%: all assays above

S=C(NCc1ccc2c(c1)OCO2)N1CCN(c2ncnc3c2oc2ccccc23)CC1 [Amuvatinib]
16.2%: UACC62R
18.1%: UACC62P
< 0%: all other assays above

COc1ccc(-c2cc3c(C)nc(N)nc3n([C@H]3CC[C@H](OCCO)CC3)c2=O)cn1
25.1%: UACC62R
18.7%: M249P
40.5%: M238R
15.4%: UACC62P
17.2%: M229P
38.3%: M249R
37.5%: M229R
38.8%: M238P

An excerpt from above in order of heavy-atom count, low to high:
CC(=O)Oc1ccccc1C(=O)O [Aspirin]
< 0%: all assays above

C/C=C/C/C=C/CCC(=O)[C@H]1O[C@H]1C(N)=O [Cerulenin]
< 0%: all assays above

O=C(O)c1ccc(O)c2ncc(N3CCOCC3)cc12
< 0%: all assays above

Next entries:

Cc1ncc([N+](=O)[O-])n1CCO [Metronidazole]
< 0%: all assays above

CC(C)c1cnn2c(NCc3ccccc3)cc(N[C@@H](CO)[C@H](O)CO)nc12
44.4%: UACC62R
25%: M238P
23.4%: UACC62P
< 0%: all other assays above

CC[C@H]1OC(=O)[C@H](C)C(=O)[C@H](C)[C@@H](O[C@@H]2O[C@H](C)C[C@H](N(C)C)[C@H]2O)[C@](C)(OC)C[C@@H](C)C(=O)[C@H](C)[C@H]2N(CCCCn3cnc(-c4cccnc4)c3)C(=O)O[C@]12C [Telithromycin]
< 0%: all assays above

CNCC[C@H](Oc1cccc2ccccc12)c1cccs1 [Duloxetine hydrochloride]
< 0%: all assays above

COC1=C(OC)C(=O)C(CCCCCCCCCCO)=C(C)C1=O [Idebenone]
< 0%: all assays above

CCOc1cc(CC(=O)N[C@@H](CC(C)C)c2ccccc2N2CCCCC2)ccc1C(=O)O [Repaglinide]
3.24%: UACC62P
< 0%: all other assays above

CN(C)c1ccc2nc3ccc(=[N+](C)C)cc-3sc2c1 [Methylene blue]
9.31%: UACC62P
16.7%: M249R
23.2%: M238P
24.3%: M229P
18.8%: M229R
< 0%: all other assays above

Nc1nc(N)c(N=O)c(OCC2CCCCC2)n1
0.25%: M229R
< 0%: all other assays above

CCc1nc(N)nc(N)c1-c1ccc(Cl)cc1 [Pyrimethamine]
3.29%: M249R
3.94%: M249P
5.64%: UACC62P
< 0%: all other assays above

O=NN(CCCl)C(=O)NCCCl [Carmustine]
< 0%: all assays above

CCCCOCCOc1nc(-c2ccc(C(=O)O)c(F)c2)sc1C
< 0%: all assays above

Cn1nnc2c(C(N)=O)ncn2c1=O [Temozolomide]
< 0%: all assays above

C[C@@H](Oc1cc(-c2cnn(C3CCNCC3)c2)cnc1N)c1c(Cl)ccc(F)c1Cl
10.5%: UACC62P
0.22%: M229R
< 0%: all other assays above

Nc1nc(Nc2ccc(S(N)(=O)=O)cc2)nn1C(=O)c1c(F)cccc1F
4.14%: M249R
< 0%: all other assays above

CN(C)C(=O)[C@H](O)[C@H](Cc1ccccc1)NC(=O)c1cc2cc(Cl)ccc2[nH]1
< 0%: all assays above

O=c1[nH]cc(F)c(=O)[nH]1 [Fluorouracil]
0.04%: M249P
3.47%: M238R
5.52%: UACC62P
< 0%: all other assays above

COc1ccc(C2=N[C@@H](c3ccc(Cl)cc3)[C@@H](c3ccc(Cl)cc3)N2C(=O)N2CCNC(=O)C2)c(OC(C)C)c1 [Nutlin-3]
11.2%: UACC62P
3.35%: UACC62R
< 0%: all other assays above

C1Cc2[nH]nc(-c3nn[nH]n3)c2C1
< 0%: all assays above

N[C@@H](Cc1ccc(O)c(O)c1)C(=O)O [Levodopa]
< 0%: all assays above

O=c1c(-c2ccc(O)cc2)coc2cc(O[C@@H]3O[C@H](CO)[C@@H](O)[C@H](O)[C@H]3O)cc(O)c12 [Genistin]
3.23%: M249P
< 0%: all other assays above

CC(C)N(CCCNC(=O)Nc1ccc(C(C)(C)C)cc1)C[C@H]1O[C@@H](n2cc(Br)c3c(N)ncnc32)[C@H](O)[C@@H]1O
< 0%: all assays above

O=C(/C=C/c1cccnc1)NCCCCC1CCN(C(=O)c2ccccc2)CC1 [FK866 (APO866, Daporinad)]
84.2%: M249P
58.8%: M238R
4.54%: UACC62R
83.5%: M238P
96.5%: M229P
82.7%: M229R
9.82%: UACC62P
72.6%: M249R

OC1CCC(Nc2ncc3nc(Nc4c(F)cc(F)cc4F)n([C@@H]4CCOC4)c3n2)CC1 (stereo not given in full)
2.5%: UACC62P
< 0%: all other assays above

CCCCNc1cc(C(=O)O)cc(S(N)(=O)=O)c1Oc1ccccc1 [Bumetanide]
3.06%: M229R
< 0%: all other assays above

Nc1nc2[nH]cc(CCc3ccc(C(=O)N[C@@H](CCC(=O)O)C(=O)O)cc3)c2c(=O)[nH]1 [Pemetrexed disodium]
15.3%: M249P
4.96%: M249R
26.6%: UACC62R
< 0%: all other assays above

O=C(NCc1ccccc1)c1csc(Nc2ccncn2)n1 [Thiazovivin]
< 0%: all assays above

Clc1ccccc1C(c1ccccc1)(c1ccccc1)n1ccnc1 [Clotrimazole]
< 0%: all assays above

O=c1c(O)c(-c2ccc(O)cc2O)oc2cc(O)cc(O)c12 [Morin hydrate]
< 0%: all assays above

Cc1ccc2c(c1)c1c(n2CCc2ccc(C)nc2)CCN(C)C1 [Latrepirdine hydrochloride]
< 0%: all assays above

Cc1ncc([N+](=O)[O-])n1CC(C)O (stereo not given) [Secnidazole]
< 0%: all assays above
